Results deposited as PubChem BioAssay AID652243 (Drosophila RNAi Screening Center, 2013)

Purpose: 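Fly regulators of androgen-dependent reporter output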 (primary screen)
System: Drosophila S2R+ cells
Reagent: long dsRNA against Drosophila genes
Timing: 72 h (48 h, then 24 h hormone)
Challenge: synthetic androgen R1881 at 10 nM for 24 h
Read-out: 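Per-well raw luminescence of the androgen-driven firefly reporter and of the Renilla control, two replicates each, without normalisation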
Reading the numbers: firefly reporter light: higher = more light from androgen-responsive reporter; Renilla control light: higher = more constitutive control signal (cell number, transfection)
Rule for the call: 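Across duplicate plates, a knock-down whose log firefly/Renilla ratio shifted a set fold down or up from the GFP/LacZ control mean was a hit; the downward cut appears as both 1.5 and 3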
Calls: active = hit: reporter lowered or raised; inactive = no hit
In all, the deposit lists about 24,000 reagents; shown is a random part of those with a known target gene and a result. In the full data, 246 (1%) are marked active. 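Plates not normalised; calls are printed but the firefly/Renilla ratio behind them is not deposited; fold cut for lowering reported inconsistently.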 The raw values are shown without normalisation. A plus sign joins genes that one reagent is predicted to hit. Reagent sequences are not shown. Not stated in the record: the amount of reagent.

gene,dsRNA,"firefly reporter light, replicate 1","firefly reporter light, replicate 2","Renilla control light, replicate 1","Renilla control light, replicate 2",activity call
Rab10,DRSC20572,4.42e5,1.71e5,1.34e6,5.43e5,inactive
Rab10,DRSC25270,4.27e5,3.40e5,4.12e5,4.46e5,inactive
Lcp9,DRSC04287,3.46e5,3.06e5,2.41e6,1.58e6,inactive
Cog7,DRSC16331,2.93e5,2.15e5,2.28e6,3.34e6,inactive
His3:CG33818 + His3:CG33857 + His3:CG33806 + 21 more,DRSC27099,3.60e5,3.63e5,37642,28430,inactive
CG32986,DRSC02509,3.20e5,2.47e5,1.70e6,1.57e6,inactive
CG4945,DRSC06904,1.18e6,1.06e6,2.13e6,1.55e6,inactive
CG4945,DRSC29644,3.11e5,4.14e5,7.88e5,7.88e5,inactive
CG4945,DRSC37058,,,,,inactive
CG32795,DRSC18609,2.98e5,2.76e5,5.15e6,4.18e6,inactive
CG32795,DRSC18610,4.88e5,4.06e5,4.27e6,4.20e6,inactive
CG31031 (retired record),DRSC13964,1.08e6,8.82e5,1.57e6,1.10e6,inactive
mRpS33,DRSC14239,1.99e5,1.93e5,3.08e6,2.53e6,inactive
CG14454,DRSC11711,3.21e5,2.33e5,2.62e6,2.26e6,inactive
CG14454,DRSC23866,8.58e5,1.08e6,9.20e5,1.02e6,inactive
Akap200,DRSC01864,5.64e5,7.25e5,1.39e6,1.38e6,inactive
Akap200,DRSC36791,,,,,inactive
Iswi,DRSC07446,3.88e5,3.28e5,1.22e6,9.39e5,inactive
Iswi,DRSC26047,3.27e5,3.43e5,5.55e5,6.18e5,inactive
CG7542,DRSC10868,2.21e5,1.18e5,2.47e6,1.57e6,inactive
CG15252,DRSC17981,1.50e5,1.76e5,1.93e6,1.80e6,inactive
CG15252,DRSC29645,6.14e5,5.58e5,8.85e5,8.85e5,inactive
CG2701,DRSC18590,1.36e5,81483,9.46e5,5.72e5,inactive
Cyp6a2,DRSC05014,3.18e5,2.61e5,3.13e6,2.09e6,inactive
Cyp6a2,DRSC24091,4.46e5,4.87e5,4.83e5,4.83e5,inactive
cmet,DRSC03511,1.55e5,1.96e5,1.36e6,1.66e6,inactive
CG5225,DRSC24962,5.94e5,9.78e5,7.78e5,7.57e5,inactive
CG8891,DRSC03120,1.95e5,1.62e5,2.11e6,1.66e6,inactive
CG8891,DRSC28308,3.65e5,6.38e5,1.31e6,1.89e6,inactive
snoRNA:Me18S-C1280 (retired record),DRSC26813,3.33e5,2.93e5,1.07e6,6.51e5,inactive
CG6729,DRSC02984,4.01e5,3.44e5,3.51e6,3.52e6,inactive
CG6729,DRSC22793,4.89e5,8.14e5,8.22e5,8.52e5,inactive
CG6729,DRSC29961,4.65e5,3.19e5,1.21e6,7.51e5,inactive
CG11474,DRSC04112,1.24e6,9.36e5,1.69e6,1.20e6,inactive
sano,DRSC06165,1.03e6,9.96e5,1.45e6,1.33e6,inactive
sano,DRSC26307,2.41e5,2.43e5,6.77e5,5.93e5,inactive

Look-ups from the list:
Result of Iswi [DRSC07446] in “Renilla control light, replicate 2”: 9.39e5
CG4945 [DRSC06904], activity call → inactive
Cyp6a2 [DRSC05014], firefly reporter light, replicate 1 → 3.18e5
Under “firefly reporter light, replicate 2”, Rab10 [DRSC20572] shows 1.71e5

Continued:
gene,dsRNA,"firefly reporter light, replicate 1","firefly reporter light, replicate 2","Renilla control light, replicate 1","Renilla control light, replicate 2",activity call
Jhbp14,DRSC01988,2.22e5,2.85e5,1.97e6,1.89e6,inactive
CSN7,DRSC06807,7.99e5,9.58e5,1.69e6,1.57e6,inactive
CSN7,DRSC06808,3.66e5,3.21e5,1.53e6,1.69e6,inactive
CG9521,DRSC20196,4.98e5,4.36e5,4.31e6,4.45e6,inactive
CG13482,DRSC10024,7.93e5,6.63e5,9.38e5,1.24e6,inactive
CG13482,DRSC23975,9.50e5,1.35e6,1.01e6,1.09e6,inactive
polyph,DRSC06254,2.24e5,1.74e5,1.46e6,8.86e5,inactive
CG10761,DRSC17753,2.87e5,3.51e5,2.35e6,2.41e6,inactive
CG10761,DRSC27665,3.67e5,4.32e5,3.11e5,5.70e5,inactive
TTLL4A,DRSC02528,8.23e5,7.33e5,2.62e6,2.72e6,inactive
TTLL4A,DRSC28124,5.15e5,4.95e5,1.38e6,1.11e6,inactive
CG10137,DRSC02014,7.87e5,7.26e5,1.23e6,1.06e6,inactive
CG10137,DRSC02015,99471,79895,1.10e6,8.85e5,inactive
CG10137,DRSC27098,3.96e5,3.41e5,6.20e5,3.51e5,inactive
CG18063,DRSC01968,2.20e5,2.35e5,1.84e6,2.06e6,inactive
CG12818,DRSC14556,84018,1.35e5,1.94e6,1.73e6,inactive
CG14671,DRSC12257,60599,1.71e5,1.58e6,1.48e6,inactive
CG11892,DRSC14428,59667,80651,4.95e5,8.83e5,inactive
CG14968,DRSC08427,58454,1.02e5,9.47e5,1.49e6,inactive
CG14968,DRSC28793,3.44e5,2.59e5,1.63e6,1.41e6,inactive
bs,DRSC23068,9.88e5,1.34e6,1.48e6,1.98e6,inactive
bs,DRSC25943,5.10e5,6.30e5,9.84e5,9.82e5,inactive
